PubChem BioAssay AID652272, Drosophila RNAi Screening Center – 2013
The screen tested about 21,000 reagents; this is a random part of those with a known target gene and a result. Of all reagents, 503 (2.4%) are marked active. 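Raw plate light values, not normalised; calls rest on replicate z-scores that were not deposited; hits include reporter decreases as well as increases.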 The record does not give: the amount of reagent, the time to read-out.

- Aim: 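Finding fly genes that regulate Hedgehog signal transduction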 (primary screen)
- Cells: Drosophila clone 8 (Cl8) cells
- Reagent: long dsRNA against Drosophila genes
- Measured: 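Plate reader light from a firefly reporter under a ptc promoter fragment that responds to Hedgehog, with Renilla light as transfection reference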
- Scale: firefly Hh reporter signal: higher = more ptc reporter light; Renilla reference signal: higher = more Renilla control light
- Active means: 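Hit when the z-score averaged over two replicates is under -2 or over +3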
- Calls: active = hit: reporter lowered or raised; inactive = not a hit

Gene	DRSC id	firefly Hh reporter signal, replicate 1	firefly Hh reporter signal, replicate 2	firefly Hh reporter signal, replicate 3	Renilla reference signal, replicate 1	Renilla reference signal, replicate 2	Outcome
vilya (GeneID 31264)	DRSC18588	71469	1.63e5		1802	6755	inactive
Diedel (GeneID 43474)	DRSC14317	1.56e5	1.01e5		5249	2784	inactive
Poxm (GeneID 40990)	DRSC16793	1.43e5	7.61e5	2.11e5	5027	5654	inactive
CG8006 (GeneID 38920)	DRSC10949	81184	72000		3270	2517	inactive
Nbr (GeneID 35385)	DRSC03166	63207	59765		2641	2524	inactive
GstO1 (GeneID 38975)	DRSC10688	31008	65392		3600	4765	inactive
Cpr73D (GeneID 39897)	DRSC11084	86461	50346		4240	2568	inactive
CG9928 (GeneID 34704)	DRSC03274	1.05e5	37609		2621	3410	inactive
rgr (GeneID 35843)	DRSC06487	1.07e5	97113		5175	3847	inactive
rgr (GeneID 35843)	DRSC07229	59403	45296		2886	1844	inactive
CG15136 (GeneID 35033)	DRSC02436	74636	36133		2058	3986	inactive
Obp19a (GeneID 33037)	DRSC20487	79400	2.05e5		2128	10554	inactive
CG3437 (GeneID 39096)	DRSC10366	50231	35517	50992	3659	3632	inactive
CG6465 (GeneID 41274)	DRSC16046	1.16e5	1.03e5		5048	4000	inactive
CG4714 (GeneID 36470)	DRSC06883	78048	66641		3148	2288	inactive
jub (GeneID 32351)	DRSC19367	61824	73489		1763	1744	inactive
TMEM216 (GeneID 41035)	DRSC16378	87120	1.84e5		3272	36073	inactive
CG34457 (GeneID 5740661)	DRSC06924	89738	40387		2305	3232	inactive
DZIP1 (GeneID 42921)	DRSC14620	4.80e5	1.01e5		27849	2853	inactive
CG11585 (GeneID 32365)	DRSC19410	59708	2.24e5		2036	9724	inactive
Ubqn (GeneID 32977)	DRSC19581	88977	75245		2454	2353	inactive
brv1 (GeneID 40116)	DRSC11076	1.03e5	79270		3617	1872	inactive
CG10132 (GeneID 35239)	DRSC02013	52739	31987		2579	1833	inactive

A stretch from the list above, for reference:
Gene	DRSC id	firefly Hh reporter signal, replicate 1	firefly Hh reporter signal, replicate 2	firefly Hh reporter signal, replicate 3	Renilla reference signal, replicate 1	Renilla reference signal, replicate 2	Outcome
CG6465 (GeneID 41274)	DRSC16046	1.16e5	1.03e5		5048	4000	inactive
CG4714 (GeneID 36470)	DRSC06883	78048	66641		3148	2288	inactive
